This note sets out measurements from publication PMC1291380.

No constants are given. Whether binding was seen depends on the method and setting. Binding seen in cells or lysates may run through a third protein. Binding can be weak; no strength is given. Tags and fused reporters may be left off the sequences shown.

In the experiment the target is T1, flag-tagged Wnt-5a (Xwnt-5a) (Xenopus) (UniProt P31286).
T1 sequence: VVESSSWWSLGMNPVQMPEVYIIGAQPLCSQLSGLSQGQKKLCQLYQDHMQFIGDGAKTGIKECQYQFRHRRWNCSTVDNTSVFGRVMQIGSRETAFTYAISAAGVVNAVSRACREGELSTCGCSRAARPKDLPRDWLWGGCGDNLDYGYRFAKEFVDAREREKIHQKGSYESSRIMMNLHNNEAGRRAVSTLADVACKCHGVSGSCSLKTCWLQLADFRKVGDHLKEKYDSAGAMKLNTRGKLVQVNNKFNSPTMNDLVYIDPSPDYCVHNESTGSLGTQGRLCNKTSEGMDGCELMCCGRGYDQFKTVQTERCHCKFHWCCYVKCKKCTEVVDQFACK
The experiment is described as follows: co-IP; extract of gastrula stage Xenopus embryos injected with both mRNAs; NP-40 lysis buffer (10 mM Tris-HCl pH 7.5, 100 mM NaCl, 2 mM EDTA, 1 mM EGTA, 0.5% NP-40, 5% glycerol); anti-flag (M2), anti-myc (9E10) or mouse IgG as control, 4°C, protein G beads; blot with anti-myc or anti-flag.

On to “Myc-tagged Xfz4S (Xenopus frizzled-4S, splicing variant of Xfz4)”, for which the binding result is given as “binds”.
